# Experimental data as given in doi:10.1101/2025.05.06.651509.
# No constants are given. Whether binding was seen depends on the method and setting. For some assays here: In cells and extracts the contact can be indirect. Some entries that bind do so weakly or less than the wild type. For some assays here: Sequences can lack the tags named with a protein.
# T1: HA-tagged TSC22D4 (UniProt Q9Y3Q8)
# T1 sequence: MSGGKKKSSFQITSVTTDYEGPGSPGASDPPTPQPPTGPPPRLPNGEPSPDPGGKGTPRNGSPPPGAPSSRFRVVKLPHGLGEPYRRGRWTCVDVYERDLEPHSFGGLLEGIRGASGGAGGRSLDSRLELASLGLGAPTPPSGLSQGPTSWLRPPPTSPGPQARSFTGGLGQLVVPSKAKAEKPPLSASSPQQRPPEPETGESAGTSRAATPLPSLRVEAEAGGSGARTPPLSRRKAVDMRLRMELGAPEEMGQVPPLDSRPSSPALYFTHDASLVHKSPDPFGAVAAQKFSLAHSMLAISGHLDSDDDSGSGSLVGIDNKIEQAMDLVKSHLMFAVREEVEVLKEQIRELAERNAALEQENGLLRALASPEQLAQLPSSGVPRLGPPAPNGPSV
# B1: endogenous TSC22D4 (protein, UniProt Q9EQN3 1-387)
# chain: MSGGKKKSSFQITSVTTDYEGPGSPGASDSPVPPALAGPPPRLPNGDPNPDPGGRGTPRNGSPPPGAPASRFRVVKLPQGLGEPYRRGRWTCVDVYERDLEPPSFGRLLEGIRGASGGTGGRSLDSRLELASLGISTPIPQPGLSQGPTSWLRPPPTSPGPQARSFTGGLGQLAGPGKAKVETPPLSASPPQQRPPGPGTGDSAQTLPSLRVEVESGGSAAATPPLSRRRDGAVRLRMELVAPAETGKVPPTDSRPNSPALYFDASLVHKSPDPFGAAAAQSLSLARSMLAISGHLDSDDDSGSGSLVGIDNKIEQAMDLVKSHLMFAVREEVEVLKEQIRDLAERNAALEQENGLLRALASPEQLAQLPSSGLPRLGPSAPNGPSI
# B2: recombinant IGF2BP2, Q9Y6M1 1-599 (protein)
# chain: MMNKLYIGNLSPAVTADDLRQLFGDRKLPLAGQVLLKSGYAFVDYPDQNWAIRAIETLSGKVELHGKIMEVDYSVSKKLRSRKIQIRNIPPHLQWEVLDGLLAQYGTVENVEQVNTDTETAVVNVTYATREEAKIAMEKLSGHQFENYSFKISYIPDEEVSSPSPPQRAQRGDHSSREQGHAPGGTSQARQIDFPLRILVPTQFVGAIIGKEGLTIKNITKQTQSRVDIHRKENSGAAEKPVTIHATPEGTSEACRMILEIMQKEADETKLAEEIPLKILAHNGLVGRLIGKEGRNLKKIEHETGTKITISSLQDLSIYNPERTITVKGTVEACASAEIEIMKKLREAFENDMLAVNQQANLIPGLNLSALGIFSTGLSVLSPPAGPRGAPPAAPYHPFTTHSGYFSSLYPHHQFGPFPHHHSYPEQEIVNLFIPTQAVGAIIGKKGAHIKQLARFAGASIKIAPAEGPDVSERMVIITGPPEAQFKAQGRIFGKLKEENFFNPKEEVKLEAHIRVPSSTAGRVIGKGGKTVNELQNLTSAEVIVPRDQTPDENEEVIVRIIGHFFASQTAQRKIREIVQQVKQQEQKYPQGVASQRSK
# What was measured:
# HA-tagged TSC22D4 = molecular target: T1, HA-tagged TSC22D4; assay: co-IP
# [1] = molecular target: recombinant IGF2BP2 (human), Q9Y6M1; assay: MST; conditions: remark: other sources report otherwise
Binder,binding (HA-tagged TSC22D4),binding [1]
B1,binds,
B2,,binds
